Drawing on PubChem BioAssay AID258 (DTP/NCI, 2004), this text covers T/C and survivor count for 5 molecules.

This experiment has as its system CD2F1 mice, L1210 leukemia sc, survival T/C. Briefly: NCI In Vivo Anticancer Drug Screen. Data for tumor model L1210 Leukemia (subcutaneous) in CD2F1 (CDF1) mice. The note with it: T/C endpoint: median survival time, higher T/C = longer survival; for survivor count: vehicle: methylcellulose (MC). In outline: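 Transplantable tumor-bearing mice were treated with compound; survival or tumor size measured and expressed as treated-group value (T) divided by vehicle-treated control value (C).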

Where [1] appears, read: dose: 80.0 mg/kg/injection, schedule: Q01DX009 (sc), vehicle: saline, evaluated on day 30.
Where [2] appears, read: dose: 80.0 mg/kg/injection, schedule: Q01DX009 (sc), vehicle: saline, evaluated on day 45.

The list does not hold the whole screen: it gathers tests that were run many times, whatever their T/C, doses with no T/C, and many T/C values between a quarter and a half above the control. Other doses and runs of a compound stand elsewhere. T/C is the treated group as % of the vehicle group. Some entries give survivors of the animals treated and no T/C: the source holds a T/C of zero for them, seemingly a mark for toxic or unscored doses. Counts of survivors are from the toxicity check (mostly the fifth day) where no day follows; animals may have died later. Schedule codes are those of the source, read here as Q, the interval in days (D) or hours (H), X, the number of doses. Some schedule codes hold Z or #, which are not explained here. For survival time, the PubChem record calls one and a half times the control and up active, and a quarter to a half above the control has no call in these data; cut-offs in other NCI protocols can differ. Some doses were run more than once; their values stand side by side, smallest first. Some T/C values carry the count of animals alive at the toxicity check (mostly the fifth day); without a count, all were alive then.

As to `O=c1[nH]cc(F)c(=O)[nH]1`, the T/C is, setting by setting: (dose: 12.0 mg/kg/injection, schedule: Q01DX009 (ip), vehicle: saline) 131 % of control; (dose: 12.0 mg/kg/injection, schedule: Q01DX009 (sc), vehicle: saline) 126 % of control; (dose: 16.0 mg/kg/injection, schedule: Q01DX009 (ip), vehicle: saline) 136 % of control; (dose: 20.0 mg/kg/injection, schedule: Q01DX009 (ip), vehicle: saline) 141 % of control; (dose: 23.0 mg/kg/injection, schedule: Q01DX Z (sc), vehicle: saline) 133 % of control; (dose: 24.0 mg/kg/injection, schedule: Q01DX009 (ip), vehicle: saline) 139 % of control [9 of 10 alive]. For the same molecule, the T/C runs as follows: (dose: 25.0 mg/kg/injection, schedule: Q01DX006 (ip), vehicle: saline) 144 % of control; (dose: 25.0 mg/kg/injection, schedule: Q01DX009 (ip), vehicle: saline) 143 % of control; (dose: 36.0 mg/kg/injection, schedule: Q01DX009 (ip), vehicle: saline) 132 % of control; (dose: 36.0 mg/kg/injection, schedule: Q01DX009 (sc), vehicle: saline) 143 % of control; (dose: 39.0 mg/kg/injection, schedule: Q01DX Z (sc), vehicle: saline) 125 % of control; (dose: 50.0 mg/kg/injection, schedule: Q01DX006 (ip), vehicle: saline) 133 % of control. In addition, the T/C was 125 % of control (dose: 50.0 mg/kg/injection, schedule: Q02DX005 (ip), vehicle: saline); 138 % of control under setting [1]; 143 % of control under setting [2]; 133 % of control (dose: 100.0 mg/kg/injection, schedule: Q01DX006 (ip), vehicle: saline); 130 % of control (dose: 160.0 mg/kg/injection, schedule: Q01DX009 (sc), vehicle: saline, evaluated on day 30); 134 % of control (dose: 160.0 mg/kg/injection, schedule: Q01DX009 (sc), vehicle: saline, evaluated on day 45). Also, the T/C reads like this: (dose: 200.0 mg/kg/injection, schedule: Q01DX001 (ip), vehicle: saline) 133 % of control; (dose: 200.0 mg/kg/injection, schedule: Q04DX003 (ip), vehicle: saline) 133 % of control; (dose: 240.0 mg/kg/injection, schedule: Q01DX009 (sc), vehicle: saline) 132 % of control.

Take `O=c1[nH]c(=O)n(C2CC(O)C(CO)O2)cc1F` (stereo unspecified): the T/C was 128 % of control (dose: 40.0 mg/kg/injection, schedule: Q01DX009 (ip), vehicle: saline); 134 % of control (dose: 40.0 mg/kg/injection, schedule: Q01DX009 (sc), vehicle: saline); 132 % of control (dose: 60.0 mg/kg/injection, schedule: Q01DX009 (sc), vehicle: saline); 125 % of control (dose: 62.5 mg/kg/injection, schedule: Q01DX006 (ip), vehicle: saline); 125 % of control (dose: 62.5 mg/kg/injection, schedule: Q01DX009 (ip), vehicle: saline); 125 % of control (dose: 62.5 mg/kg/injection, schedule: Q02DX005 (ip), vehicle: saline). For the same molecule, the T/C by setting is: (dose: 78.0 mg/kg/injection, schedule: Q01DX Z (sc), vehicle: saline) 129 % of control; (dose: 80.0 mg/kg/injection, schedule: Q01DX009 (ip), vehicle: saline) 130 % of control; under setting [1], 143 % of control; under setting [2], 125 % of control; (dose: 125.0 mg/kg/injection, schedule: Q01DX006 (ip), vehicle: saline) 137 % of control; (dose: 250.0 mg/kg/injection, schedule: Q01DX001 (ip), vehicle: saline) 125 % of control. The T/C by setting is: (dose: 250.0 mg/kg/injection, schedule: Q04DX003 (ip), vehicle: saline) 125 % of control; (dose: 500.0 mg/kg/injection, schedule: Q01DX001 (ip), vehicle: saline) 137 % of control.

For `O=C(O)c1[nH]c(=O)[nH]c(=O)c1F`, the T/C is 133 % of control (dose: 5.0 mg/kg/injection, schedule: Q01DX Z (sc), vehicle: saline); 144 % of control (dose: 65.0 mg/kg/injection, schedule: Q01DX Z (sc), vehicle: saline); 144 % of control (dose: 108.0 mg/kg/injection, schedule: Q01DX Z (sc), vehicle: saline); 138 % of control (dose: 180.0 mg/kg/injection, schedule: Q01DX Z (sc), vehicle: saline).

For `CCN(CC)CCNc1ccc(CO)c2sc3ccccc3c(=O)c12`, the T/C is, setting by setting: (dose: 40.0 mg/kg/injection, schedule: Q01DX009 (ip), vehicle: water) 140 and 142 % of control; (dose: 80.0 mg/kg/injection, schedule: Q01DX009 (ip), vehicle: water) 141 and 142 % of control.

On to `CCC(=O)O[C@H]1CC[C@H]2[C@@H]3CC[C@H]4CC(=O)[C@H](C)C[C@]4(C)[C@H]3CC[C@]12C`, for which the survivor count is given as 0 of 10 (dose: 108.0 mg/kg/injection, schedule: Q01DX Z (sc)); 2 of 10 (dose: 180.0 mg/kg/injection, schedule: Q01DX Z (sc)); 4 of 10 (dose: 300.0 mg/kg/injection, schedule: Q01DX Z (sc)); 2 of 10 (dose: 500.0 mg/kg/injection, schedule: Q01DX Z (sc)); 2 of 10 (dose: 833.0 mg/kg/injection, schedule: Q01DX Z (sc)).
